Assay results from article PMC4632068.

T1: Dhh1−GFP (S. cerevisiae (endogenous in BY4741-derived yeast)) (UniProt P39517)
T1 sequence: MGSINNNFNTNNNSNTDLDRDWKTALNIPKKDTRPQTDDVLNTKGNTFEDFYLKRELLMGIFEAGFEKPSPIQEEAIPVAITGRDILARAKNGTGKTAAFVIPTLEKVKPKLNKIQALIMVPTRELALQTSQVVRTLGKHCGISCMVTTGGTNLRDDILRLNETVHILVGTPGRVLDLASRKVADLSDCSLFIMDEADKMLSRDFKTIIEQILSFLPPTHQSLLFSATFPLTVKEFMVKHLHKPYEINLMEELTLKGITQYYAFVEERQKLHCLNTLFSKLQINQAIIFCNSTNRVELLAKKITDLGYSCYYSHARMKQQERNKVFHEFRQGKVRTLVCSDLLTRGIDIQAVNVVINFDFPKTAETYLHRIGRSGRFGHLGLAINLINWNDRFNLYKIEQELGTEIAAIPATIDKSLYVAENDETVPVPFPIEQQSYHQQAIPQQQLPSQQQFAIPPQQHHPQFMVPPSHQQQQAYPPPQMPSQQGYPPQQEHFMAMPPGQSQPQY

B1: Rpm2 (protein, UniProt Q02773 123-1202)
chain: STGPTLPTNQYDPLNFSNRNFQDLSLKTSQPSVQQPQNEYSLLKDENAPVWKEDTEPCLNKSTYLQTHIDEINRCYEQKNYNKINSLYQSLKRNDIVPPLEIFTKVLDSLCKRPLDNNDLDNKMYELLTCYQDMINNRLKPPDEIYNIVLLSLFKGSILAYQFENPNGSDFYKIAIELFNTTTNDPKQKSVVKFRNFSKDVLDYNLLAMNIYPGHITLSKAQQVIKSSPAFIKDSFYFIACFSYAKLTNDKFAIKELYEDFRLSLSSGSPDQGLFDDQFEIYSVILSSFIETGEVELATNLLDDLVSKIQSSNGLASNISLLLSSFLISMSKVDPSKAYEIWFKFHNLNWIPEFSYEFYLVFMANSFQDWNLTKKIYDYIFPMERNLSPLKKQKLSDYLLHPIGVDSITTSLLDYSLQLKDNEVIMKILEESIVKNFSFDIGIYPFVFNYLREIQCGEDYLMRFIESHAEFIKKSNSINKFQFLNMIVDNFQSQSLLNKISHAKFFKNFVEDFNLENCELVSYNGLISCINNFIKIPKTIKDFPYILEIHAILVTKLFDFDTYPILQNGNNEVLLKFRDQIEHQFKMLAQNFCRLNLDPNLLAGVVSQAMKMVNLDDTANGQDLLNFFNHPGDWDKSYPLSLGSFIRNSPRGGIREFTKLSKEGYCFDYDTYKELIIKRAINKQIIDKCLEVCPDSIELKNIVNLMISKIPGRNLTQLIINNPKFSKVFVPNLRNDSMLKLIENCESLSNFIRICDFPEKFKSIAIQAENKNAIELIYERLFDGGKYADILRYNNIVPVLNLELLLKSCIRSGEFKKYESLSKKFNDKISESSKIDIQLEYLINKNDLKGAFTLFEKTPRELRTPHKTMDLYTFALFLDSFNRNITYYESPENTLQFANILSSQTSFINLLSTYNLIAHSDHLMNFNVGGMAAKVKKEILNQMLNNLYDSIRLLSPSIENDKSMKEKLREKVKNYCRFKAYLKSPELDMDELKTLVSVESFLNPFTPSMLFNNLIETIYINEHASSLVLQNGLIYSLQQKGLNKILSYLEESFITSGNDANIEKVREFRSLLRKSKPLQA
B2: Sbp1 (protein, UniProt P10080 1-294)
chain: MSAEIEEATNAVNNLSINDSEQQPRAPTHKTVIDPEDTIFIGNVAHECTEDDLKQLFVEEFGDEVSVEIPIKEHTDGHIPASKHALVKFPTKIDFDNIKENYDTKVVKDREIHIKRARTPGQMQRGGFRGRGGFRGRGGFRGGFRGGYRGGFRGRGNFRGRGGARGGFNGQKREKIPLDQMERSKDTLYINNVPFKATKEEVAEFFGTDADSISLPMRKMRDQHTGRIFTSDSANRGMAFVTFSGENVDIEAKAEEFKGKVFGDRELTVDVAVIRPENDEEEIEQETGSEEKQE
B3: Tef4 (protein, UniProt P36008 1-412)
chain: MSQGTLYINRSPRNYASEALISYFKLDVKIVDLEQSSEFASLFPLKQAPAFLGPKGLKLTEALAIQFYLANQVADEKERARLLGSDVIEKSQILRWASLANSDVMSNIARPFLSFKGLIPYNKKDVDACFVKIDNLAAVFDARLRDYTFVATENISLGDLHAAGSWAFGLATILGPEWRAKHPHLMRWFNTVAASPIVKTPFAEVKLAEKALTYTPPKKQKAEKPKAEKSKAEKKKDEAKPADDAAPAKKPKHPLEALGKSTFVLDDWKRKYSNDDTRPVALPWFWEHYNPEEYSIWKVGYKYNDELTLTFMSNNLVGGFFNRLSASTKYMFGCLVVYGENNNNGIVGAVMVRGQDFAPAFDVAPDWESYEYTKLDPTKEEDKEFVNNMWAWDKPVVVNGEDKEIVDGKVLK

Each binder was assayed against T1, Dhh1−GFP (S. cerevisiae (endogenous in BY4741-derived yeast)) (assay: affinity purification with mass spectrometry; Dhh1−GFP captured by anti-GFP IgG cross-linked to Protein-G Dynabeads from cleared lysate of cryo-ground yeast; RB buffer (30 mM K-Hepes pH 7.4, 150 mM KCl, 2 mM MgCl2, 0.2% NP-40, 0.1% Tween-20, 1 mM DTT, RNase inhibitor), 30 min at 4°; five purifications (two +glucose YPD, three 30 min −glucose YEP); hits filtered by SAINT against CRAPome controls).

binding, binds:
B1, B2, B3

Results are given in words; binding and its absence hold for the method and conditions named. In cells and extracts the contact can be indirect. These calls come from enrichment with a bait or labelling near it, and not all partners need be listed. Sequences can lack the tags named with a protein.
